Where “and” joins values, the source holds several entries; their conditions need not be identical. Identical values can stand only once. About 6,100 (1.1%) of roughly 580,000 compounds were called active. The inconclusive results got no clear call from the source; some entries with a clear call stand among them for comparison. The call rests on the fitted dose curve; in most records, active means well fitted inhibition curve with a large enough effect; inconclusive means small, poorly fitted or top-dose-only effect, or another doubt; inactive means no such curve, though single readings can be large or run the other way. Potencies beside an inconclusive call are fits to weak or partial responses and may not hold up.
Target: Polyunsaturated fatty acid lipoxygenase ALOX12 (Homo sapiens) (UniProt P18054)
Assay: Primary qHTS assay for inhibitors of human arachidonate 12S-lipoxygenase (ALOX12): Round 2
Conditions: purified 12hLO, xylenol orange hydroperoxide absorbance; activity change, negative = inhibition: at 108 µM (top of the series) unless noted
Summary of the method: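 Purified human 12hLO (150 nM final) in 25 mM Hepes, 0.01% Triton X-100, pH 7.0 was preincubated 15 min at room temperature with compound. Then 40 uM arachidonic acid was added, 30 min. Hydroperoxide was read by Fe-XO absorbance ratio 573/405 nm.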
On the % scale 0 is the no-effect control and ±100 the full control effect; potency means the concentration at half of the fitted maximal effect.

The chains behind the UniProt entries cited, without tags or fusion partners. Where a name states a change or a piece, a line headed by the entry shows the natural chain unless it says otherwise.
UniProt P18054: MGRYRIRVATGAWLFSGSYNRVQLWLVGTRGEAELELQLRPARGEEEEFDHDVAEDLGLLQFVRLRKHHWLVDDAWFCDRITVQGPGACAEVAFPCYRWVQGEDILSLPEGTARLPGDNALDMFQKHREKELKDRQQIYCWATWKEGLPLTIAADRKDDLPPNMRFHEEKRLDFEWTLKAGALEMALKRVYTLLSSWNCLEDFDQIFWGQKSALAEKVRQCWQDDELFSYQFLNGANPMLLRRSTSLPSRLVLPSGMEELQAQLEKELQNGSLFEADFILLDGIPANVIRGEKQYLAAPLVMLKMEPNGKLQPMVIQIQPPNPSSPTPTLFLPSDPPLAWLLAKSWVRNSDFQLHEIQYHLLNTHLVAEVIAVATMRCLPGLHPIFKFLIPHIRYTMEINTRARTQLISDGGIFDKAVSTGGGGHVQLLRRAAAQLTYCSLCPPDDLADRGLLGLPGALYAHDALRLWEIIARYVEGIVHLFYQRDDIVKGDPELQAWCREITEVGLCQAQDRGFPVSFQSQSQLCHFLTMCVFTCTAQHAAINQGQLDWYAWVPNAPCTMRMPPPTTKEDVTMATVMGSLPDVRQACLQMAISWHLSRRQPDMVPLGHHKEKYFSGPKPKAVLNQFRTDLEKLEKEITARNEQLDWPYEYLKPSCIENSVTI

Question: Which Potency does the source give for Cc1ccnc(NC(=O)CCc2ncc(-c3ccc(Cl)cc3)o2)c1 here?
Answer: inconclusive: 126 µM [inhibitor, single point]

Question: Which “activity change, negative = inhibition” value does the source give for O=C(Nc1ccc(CN2CCOCC2)cc1)c1cccc(-c2cc3ccccc3oc2=O)c1 here?
Answer: inactive: -8.71%

Question: How did the Potency turn out when S=c1[nH]nc(-c2ccncc2)n1Cc1ccco1 was run?
Answer: inconclusive: 56.2 µM [inhibitor, partial curve, poor fit]

Question: How did the Potency turn out when C=C(CCO)C1=CCN(S(=O)C(C)(C)C)[C@@H]1CCO (some centres undefined) was run?
Answer: inconclusive: 50.1 µM [inhibitor, single point]

Question: For O=C(NCc1ccccc1-n1ccnc1)C1CC(=O)N(Cc2cccnc2)C1 (centres undefined), which “activity change, negative = inhibition” value is on record?
Answer: inactive: 45.8%

Question: N#CCCN(C(=O)Cn1nc(Cc2cccnc2)c2ccccc2c1=O)c1ccccc1 was tested. Which Potency did it give?
Answer: inconclusive: 158 µM [inhibitor, single point]

Question: How did the Potency turn out when Cc1nn(CCc2nc(-c3ccc(OC(F)F)cc3)cs2)c2[nH]c(=O)cc(C(F)(F)F)c12 was run?
Answer: inconclusive: 1 µM [inhibitor, full curve, poor fit]

Question: Which Potency does the source give for Cc1ccc(C(=O)CCN2CCC(c3ccccc3)C2)cc1 (centres undefined) here?
Answer: inconclusive: 63.1 µM [inhibitor, partial curve, poor fit]

Question: CC(C)NS(=O)(=O)c1ccc(OCC(=O)Nc2ccc(F)cc2)cc1 was tested. Which “activity change, negative = inhibition” value did it give?
Answer: inactive: -0.0722%

Question: For COc1ccc(CCNC(=O)CCc2nnc(Cc3ccc4c(c3)OCO4)o2)cc1, which Potency is on record?
Answer: inconclusive: 112 µM [inhibitor, single point]

Question: Which Potency does the source give for O=C(Cn1[nH]c(=O)c2ccccc2c1=O)OCC(=O)c1ccccc1Cl here?
Answer: inconclusive: 44.7 µM [inhibitor, partial curve, poor fit]

Question: How did the Potency turn out when CCN(CC)CCNC(=O)Cn1nc(-c2ccccc2)c2ccccc2c1=O was run?
Answer: inconclusive: 44.7 µM [inhibitor, single point]

Question: With Cc1ccc(CC(=O)N2CCC[C@H]2c2nc(-c3ccccc3Cl)no2)cc1 as the compound, how does the “activity change, negative = inhibition” value read?
Answer: inactive: 15.2%

Question: For COc1ccccc1N1CCN(CC(O)COc2ccc(C)cc2C(C)(C)C)CC1 (centres undefined), which Potency is on record?
Answer: inconclusive: 50.1 µM [inhibitor, partial curve, poor fit]

Question: With Fc1ccc(N/N=C/C=C/c2ccccc2)c(F)c1 as the compound, how does the Potency read?
Answer: active: 39.8 µM

Question: How did the Potency turn out when CC1(C(=O)Nc2ccc(F)c(Cl)c2)Cc2c(-c3cccc(C(F)(F)F)c3)ccnc2O1 (centres undefined) was run?
Answer: inconclusive: 35.5 µM [inhibitor, partial curve, poor fit]

Question: Which “activity change, negative = inhibition” value does the source give for COCCC(=O)N1CCC(Oc2ccc(C(=O)N3CCCCCC3)cc2)CC1 here?
Answer: inactive: 10.7%

Question: CCCCCCCCN1C(=O)[C@H](CC(=O)NCc2cccc(C(F)(F)F)c2)C[C@@]2(C(=O)OCC)CCCC=C12 was tested. Which Potency did it give?
Answer: inconclusive: 100 µM [inhibitor, single point]

Question: With Cc1ccc(S(=O)(=O)NCc2cccc([N+](=O)[O-])c2)cc1 as the compound, how does the Potency read?
Answer: inconclusive: 44.7 µM [inhibitor, partial curve, poor fit]

Question: For CCN(CC)CCNCc1ccc(C)s1, which Potency is on record?
Answer: inconclusive: 10 µM [inhibitor, full curve]

Question: Which Potency does the source give for O=c1oc2ccccc2c(N2CCCC2)c1NS(=O)(=O)c1ccc(Br)s1 here?
Answer: inconclusive: 35.5 µM [inhibitor, partial curve, poor fit]

Question: With CC(C)c1nc2c(c(-c3ccc(O)cc3)n1)CCN(Cc1ccc(C(F)(F)F)cc1)CC2 as the compound, how does the Potency read?
Answer: inconclusive: 44.7 µM [inhibitor, partial curve]

Question: With COc1ccc(N2C(=O)C3CCCN3C2c2ccc(C)o2)cc1 (centres undefined) as the compound, how does the Potency read?
Answer: inconclusive: 11.2 µM [inhibitor, partial curve, poor fit]

Question: How did the Potency turn out when CN1CC2(CCN(C(=O)CCc3c[nH]c4ccccc34)CC2)CC1C(=O)N1CCOCC1 (centres undefined) was run?
Answer: inconclusive: 14.1 µM [inhibitor, full curve, poor fit]

Question: CCOc1ccc(CSC2=NCCN2)cc1Cl was tested. Which Potency did it give?
Answer: inconclusive: 28.2 µM [inhibitor, partial curve, poor fit]

Question: For O=C(O)CNCc1ccc(F)cc1, which Potency is on record?
Answer: inconclusive: 0.891 µM [inhibitor, full curve, poor fit]

Question: CSc1nc(O)c(C(c2cccc([N+](=O)[O-])c2)c2c(O)nc(SC)[nH]c2=O)c(=O)[nH]1 was tested. Which Potency did it give?
Answer: inconclusive: 50.1 µM [inhibitor, partial curve, poor fit]

Question: With N#Cc1ccsc1NC(=O)CCS(=O)(=O)c1ccccc1 as the compound, how does the Potency read?
Answer: inconclusive: 39.8 µM [inhibitor, partial curve, poor fit]

Question: How did the Potency turn out when CCCCCCCCCOC(=O)C(CC(=O)O)N1CCOCC1 (centres undefined) was run?
Answer: inconclusive: 10 µM [inhibitor, full curve, poor fit]

Question: With COc1ccc(OC)c(NC(=S)NCc2cccs2)c1 as the compound, how does the Potency read?
Answer: inconclusive: 14.1 µM [inhibitor, full curve, poor fit]

Question: With CCNCCC(=O)N1c2ccccc2Sc2ccc(C(F)(F)F)cc21 as the compound, how does the Potency read?
Answer: inconclusive: 50.1 µM [inhibitor, partial curve, poor fit]

Question: For O=C(NC1CCN(c2cc(C(F)(F)F)ncn2)CC1)c1cccs1, which “activity change, negative = inhibition” value is on record?
Answer: inactive: 28.1%

Question: Which “activity change, negative = inhibition” value does the source give for COCC1CN(C(C)=O)CC12CCN(C(=O)c1ccc(F)cc1F)CC2 (centres undefined) here?
Answer: inactive: -4.13%

Question: How did the Potency turn out when CCOC(=O)C1=C(COC(=O)c2cccc(N(C)C)c2)NC(=O)NC1C (centres undefined) was run?
Answer: inconclusive: 56.2 µM [inhibitor, partial curve, poor fit]

Question: Which Potency does the source give for O=C(CCn1c(=S)[nH]c2ccccc2c1=O)NCCCN1CCCC1=O here?
Answer: inconclusive: 0.501 µM [inhibitor, partial curve, poor fit]

Question: How did the “activity change, negative = inhibition” value turn out when CCOC(=O)c1c(S(=O)(=O)Nc2ccc(OC)c(Cl)c2)c(C)n(C)c1C was run?
Answer: inactive: 13.3%

Question: For CC(C)Cc1nc2sc3c(NCC(C)O)ncnc3c2c2c1CCC2 (centres undefined), which “activity change, negative = inhibition” value is on record?
Answer: inactive: -16.1%

Question: How did the “activity change, negative = inhibition” value turn out when CCOC(=O)c1cccn1C1C(=O)N(Cc2ccc(Cl)nc2)c2ccccc21 (centres undefined) was run?
Answer: inactive: -0.794%

Question: With CC(c1n[nH]c(=O)n1CCc1ccccc1F)n1cccn1 (centres undefined) as the compound, how does the Potency read?
Answer: inconclusive: 2.82 µM [inhibitor, full curve, poor fit]

Question: CCn1cc(Cl)c(C(=O)Nc2nc3ccccc3n2CCN2CCCCC2)n1 was tested. Which “activity change, negative = inhibition” value did it give?
Answer: inactive: 8.91% [at 57.4 µM]

Question: Which Potency does the source give for Cc1ccc(NC(=O)C2N(C(C)C)C(=O)C23CCCC3)cc1 (centres undefined) here?
Answer: inconclusive: 2.51 µM [inhibitor, full curve, poor fit]

Question: With COc1cccc(CN2Cc3nc(-c4c(C)noc4C)ccc3OCC2=O)c1 as the compound, how does the Potency read?
Answer: inconclusive: 141 µM [inhibitor, partial curve, poor fit]

Question: COCCc1nncn1C1CCN(C(=O)c2ccc(C)c(F)c2)CC1 was tested. Which “activity change, negative = inhibition” value did it give?
Answer: inactive: 61.7%

Question: CC1(C)CC(C)(c2ccc(O)cc2)c2ccccc2O1 (centres undefined) was tested. Which Potency did it give?
Answer: inconclusive: 50.1 µM [inhibitor, partial curve, poor fit]

Question: With O=C(Nc1nnc(SCc2cc(=O)n3cc(Cl)ccc3n2)s1)c1cccc(F)c1 as the compound, how does the Potency read?
Answer: inconclusive: 56.2 µM [inhibitor, partial curve, poor fit]

Question: How did the Potency turn out when COc1ccc(CNc2ccc(N3CCN(C(C)=O)CC3)cc2)cc1OC was run?
Answer: inconclusive: 28.2 µM [inhibitor, partial curve]

Question: For Clc1ccc(CSc2nnc(-c3ccccn3)n2Cc2ccco2)c(Cl)c1, which Potency is on record?
Answer: inconclusive: 56.2 µM [inhibitor, partial curve, poor fit]

Question: With C=CC1=CCN(S(=O)C(C)(C)C)[C@H]1CCO (some centres undefined) as the compound, how does the Potency read?
Answer: inconclusive: 15.8 µM [inhibitor, single point]

Question: How did the Potency turn out when CC1C2CC(C/C2=N/O)C1(C)C (centres undefined) was run?
Answer: inconclusive: 8.91 µM [inhibitor, full curve, poor fit]

Question: With COc1ccc(CN2CCC[C@]3(N[C@H](c4ccc(C(F)(F)F)cc4)[C@@H]4C(=O)N(Cc5ccccc5)C(=O)[C@@H]43)C2=O)cc1 as the compound, how does the Potency read?
Answer: inconclusive: 112 µM [inhibitor, partial curve, poor fit]

Question: For COc1cccc(C2=CC(c3ccccc3F)n3c(nc4ccccc43)N2)c1 (centres undefined), which Potency is on record?
Answer: inconclusive: 44.7 µM [inhibitor, partial curve, poor fit]

Question: How did the “activity change, negative = inhibition” value turn out when CC(=O)N1CCC(NC(=O)Cc2nc(-c3ccccc3)oc2C)CC1 was run?
Answer: inactive: 1.41%

Question: How did the Potency turn out when COC(=O)c1ccc(C)cc1C1CN=NC12Cc1cc(C)ccc1C2=O (centres undefined) was run?
Answer: inconclusive: 39.8 µM [inhibitor, partial curve]

Question: CC(C)C(=O)Nc1ccc(NC(=O)Nc2cccc(Cl)c2)cc1 was tested. Which “activity change, negative = inhibition” value did it give?
Answer: inactive: -4.3%

Question: How did the Potency turn out when C=C(C)CNC(=S)N/N=C/C1=CCC2CC1C2(C)C (centres undefined) was run?
Answer: inconclusive: 56.2 µM [inhibitor, partial curve, poor fit]

Question: How did the Potency turn out when Nc1nc(SCc2ccc(Br)cc2)c2ncn(C3OC(CO)C(O)C3O)c2n1 (centres undefined) was run?
Answer: inconclusive: 50.1 µM [inhibitor, partial curve, poor fit]

Question: Which Potency does the source give for CC(C)(C)[C@]1(O)CCN2C[C@H]3c4ccccc4CCc4cccc(c43)[C@@H]2C1 here?
Answer: inconclusive: 100 µM [inhibitor, partial curve, poor fit] and inconclusive: 50.1 µM [inhibitor, partial curve, poor fit]

Question: For Cn1c(NCc2ccc3c(c2)OCO3)nc2c1c(=O)n(Cc1ccc(F)cc1)c(=O)n2C, which “activity change, negative = inhibition” value is on record?
Answer: inactive: -26%

Question: Which Potency does the source give for Cn1c(SCC(=O)Nc2cc(F)ccc2F)nc2c(=O)[nH]cnc21 here?
Answer: inconclusive: 28.2 µM [inhibitor, partial curve]

Question: With O=C1c2ccccc2C(=O)N1CCSc1ncn[nH]1 as the compound, how does the “activity change, negative = inhibition” value read?
Answer: inactive: 0% [at 57.4 µM]

Question: For Cc1ccc2cc(C(c3nnnn3C3CCCC3)N(Cc3cccnc3)Cc3ccco3)c(=O)[nH]c2c1 (centres undefined), which “activity change, negative = inhibition” value is on record?
Answer: inactive: -11.9%

Question: How did the Potency turn out when COc1ccc(S(=O)(=O)Nc2c(C(=O)O)[nH]c3ccccc23)cc1OC was run?
Answer: inconclusive: 50.1 µM [inhibitor, partial curve, poor fit]

Question: COCCCNS(=O)(=O)c1ccc2c(c1)OCCO2 was tested. Which Potency did it give?
Answer: inconclusive: 0.178 µM [inhibitor, full curve, poor fit]

Question: With COc1ccc(S(=O)(=O)NN(C)c2nc(C(F)(F)F)nc3ccccc23)cc1 as the compound, how does the Potency read?
Answer: inconclusive: 50.1 µM [inhibitor, partial curve, poor fit]
